These are yes or no findings as the source states them, for the method shown. In cells and extracts the contact can be indirect. Some entries that bind do so weakly or less than the wild type.
Target: transcription factor MYC (human (endogenous in SGC-7901 and HGC-27)) (UniProt P01106)
Experiment: co-IP; whole-cell lysates of SGC-7901 and HGC-27 cells, precleared with anti-IgG for 2 h, protein G Sepharose beads overnight, Western blot; input 5% of the total cell extract

Amino acid sequences for entries named in this document (tags omitted).
UniProt P01106: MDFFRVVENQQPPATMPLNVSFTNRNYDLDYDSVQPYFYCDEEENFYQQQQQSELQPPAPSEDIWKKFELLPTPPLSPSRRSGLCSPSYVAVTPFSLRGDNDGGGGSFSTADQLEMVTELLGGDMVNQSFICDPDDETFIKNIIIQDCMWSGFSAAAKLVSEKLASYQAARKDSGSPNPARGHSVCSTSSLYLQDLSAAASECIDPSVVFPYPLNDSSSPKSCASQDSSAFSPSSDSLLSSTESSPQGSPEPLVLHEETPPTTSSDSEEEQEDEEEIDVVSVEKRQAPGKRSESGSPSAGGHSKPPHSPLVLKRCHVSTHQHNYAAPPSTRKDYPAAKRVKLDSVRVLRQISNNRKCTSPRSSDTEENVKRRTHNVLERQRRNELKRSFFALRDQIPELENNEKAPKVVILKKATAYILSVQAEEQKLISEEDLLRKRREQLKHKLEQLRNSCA

B1: RNA-binding motif, single-stranded-interacting protein 1 (RBMS1) (protein, UniProt P29558 1-406)
chain: MGKVWKQQMYPQYATYYYPQYLQAKQSLVPAHPMAPPSPSTTSSNNNSSSSSNSGWDQLSKTNLYIRGLPPHTTDQDLVKLCQPYGKIVSTKAILDKTTNKCKGYGFVDFDSPAAAQKAVSALKASGVQAQMAKQQEQDPTNLYISNLPLSMDEQELENMLKPFGQVISTRILRDSSGTSRGVGFARMESTEKCEAVIGHFNGKFIKTPPGVSAPTEPLLCKFADGGQKKRQNPNKYIPNGRPWHREGEVRLAGMTLTYDPTTAAIQNGFYPSPYSIATNRMITQTSITPYIASPVSAYQVQSPSWMQPQPYILQHPGAVLTPSMEHTMSLQPASMISPLAQQMSHLSLGSTGTYMPATSAMQGAYLPQYAHMQTTAVPVEEASGQQQVAVETSNDHSPYTFQPNK
- binding: binds

— paper PMC8971453
